Assay [1] deals with GST-cath-D/52K (human) (UniProt P07339). The assay is described as follows: GST pull-down competition, as summed up in the discussion.
The target is the same in assay [2]. The assay is described as follows: GST pull-down competition, increasing peptide; competitor of labelled LRP1β (1-476).

By UniProt entry, the sequences of proteins in these tests, tags left out. Residues count along the entry.
UniProt P07339, residues 21-412: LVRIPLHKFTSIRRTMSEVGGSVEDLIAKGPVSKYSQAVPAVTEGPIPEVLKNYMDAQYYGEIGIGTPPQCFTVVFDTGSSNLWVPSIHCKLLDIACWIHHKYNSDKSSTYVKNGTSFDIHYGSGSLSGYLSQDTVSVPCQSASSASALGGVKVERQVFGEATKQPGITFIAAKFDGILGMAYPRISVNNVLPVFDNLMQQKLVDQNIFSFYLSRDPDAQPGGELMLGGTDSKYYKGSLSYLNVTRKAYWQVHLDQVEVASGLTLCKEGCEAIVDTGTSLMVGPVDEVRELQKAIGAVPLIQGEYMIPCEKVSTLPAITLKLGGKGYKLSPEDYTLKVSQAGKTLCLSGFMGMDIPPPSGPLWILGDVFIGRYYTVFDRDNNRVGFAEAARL

These are yes or no findings as the source states them, for the method shown. In cells and extracts the contact can be indirect. Some results given as binding are weak or reduced against the parent protein; the word gives no strength.

For CRCLPGFLGDRCQYRQCSGYCENFGTCQMAADGSRQCRCTAYFEGSRCE [49-mer (349-397) LRP1 peptide], the binding result in assay [1] and in assay [2] was “binds” each time.

The values are drawn from patent publication EP2045266A1, “Methods for treating and diagnosing a cancer secreting cath-D or Alzheimer's disease” (priority 2007, dated 2009).
